The target of this experiment is T1, human aspartate β-hydroxylase (ASPH) (human) (UniProt Q12797).
T1 sequence (looked up): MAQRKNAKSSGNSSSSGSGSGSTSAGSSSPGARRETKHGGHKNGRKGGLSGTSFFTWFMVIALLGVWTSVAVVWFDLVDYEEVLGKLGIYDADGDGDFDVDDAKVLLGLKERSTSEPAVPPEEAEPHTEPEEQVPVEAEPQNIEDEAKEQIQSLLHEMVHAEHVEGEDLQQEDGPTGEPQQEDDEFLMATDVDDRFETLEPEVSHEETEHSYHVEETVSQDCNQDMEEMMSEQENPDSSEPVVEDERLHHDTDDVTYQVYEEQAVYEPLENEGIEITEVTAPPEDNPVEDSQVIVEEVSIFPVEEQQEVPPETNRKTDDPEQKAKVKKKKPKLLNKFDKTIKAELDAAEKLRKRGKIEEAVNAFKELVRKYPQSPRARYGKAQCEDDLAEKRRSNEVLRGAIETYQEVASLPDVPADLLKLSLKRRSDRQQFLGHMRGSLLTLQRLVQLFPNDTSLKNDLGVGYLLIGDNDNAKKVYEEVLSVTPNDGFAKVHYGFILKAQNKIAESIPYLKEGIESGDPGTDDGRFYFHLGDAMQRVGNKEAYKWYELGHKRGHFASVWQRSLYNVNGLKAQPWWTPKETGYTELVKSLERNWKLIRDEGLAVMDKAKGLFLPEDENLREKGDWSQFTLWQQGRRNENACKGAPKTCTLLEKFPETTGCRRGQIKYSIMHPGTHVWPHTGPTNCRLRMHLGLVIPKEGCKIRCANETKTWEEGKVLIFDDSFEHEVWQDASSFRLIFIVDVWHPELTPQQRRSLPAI
In words: flow cytometry, staining of MOLM-14, Raji and H460 cells. For orientation: In flow cytometry, cells or beads pass a laser one at a time.

The results in this text go back to patent US20190345261A1.

These are yes or no findings as the source states them, for the method shown. Some results given as binding are weak or reduced against the parent protein; the word gives no strength.

B1: anti-ASPH mAb SNS622 (the 622 scFv reformatted into an IgG1 mAb) (antibody, V domains shown)
VH: QVQLQQSGPGLVKPSQTLSLTCAISGDSVSSNSAAWNWIRQSPSRGLEWLGRTYYRSKWYNDYAVSVKSRITINPDTSKNQFSLQLNSVTPEDTAVYYCARTGYSSSWVVNFDYWGQGTLVTVSS
VL: QPVLTQSPSASGTPGQRVTISCSGSSSNIGSNYVYWYQQLPGTAPKLLIYKNNQRPSGVPDRFSGSKSGTAASLAISGLQSEDEADYYCAAWDDSLRGYVFGTGTKLTVLS
Turning to B1, the binding entry is “binds”.
